# According to publication PMC4914971:
# Amino acid sequences for entries named in this document (tags omitted).
# UniProt A6HD62: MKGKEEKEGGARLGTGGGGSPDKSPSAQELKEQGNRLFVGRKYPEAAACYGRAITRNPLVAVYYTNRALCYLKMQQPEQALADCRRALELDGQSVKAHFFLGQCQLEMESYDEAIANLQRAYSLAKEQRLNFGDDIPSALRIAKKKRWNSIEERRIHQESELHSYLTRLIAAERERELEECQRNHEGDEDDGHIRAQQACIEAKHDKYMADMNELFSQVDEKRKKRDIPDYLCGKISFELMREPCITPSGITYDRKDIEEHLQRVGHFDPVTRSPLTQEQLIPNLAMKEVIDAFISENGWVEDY
# UniProt P81718: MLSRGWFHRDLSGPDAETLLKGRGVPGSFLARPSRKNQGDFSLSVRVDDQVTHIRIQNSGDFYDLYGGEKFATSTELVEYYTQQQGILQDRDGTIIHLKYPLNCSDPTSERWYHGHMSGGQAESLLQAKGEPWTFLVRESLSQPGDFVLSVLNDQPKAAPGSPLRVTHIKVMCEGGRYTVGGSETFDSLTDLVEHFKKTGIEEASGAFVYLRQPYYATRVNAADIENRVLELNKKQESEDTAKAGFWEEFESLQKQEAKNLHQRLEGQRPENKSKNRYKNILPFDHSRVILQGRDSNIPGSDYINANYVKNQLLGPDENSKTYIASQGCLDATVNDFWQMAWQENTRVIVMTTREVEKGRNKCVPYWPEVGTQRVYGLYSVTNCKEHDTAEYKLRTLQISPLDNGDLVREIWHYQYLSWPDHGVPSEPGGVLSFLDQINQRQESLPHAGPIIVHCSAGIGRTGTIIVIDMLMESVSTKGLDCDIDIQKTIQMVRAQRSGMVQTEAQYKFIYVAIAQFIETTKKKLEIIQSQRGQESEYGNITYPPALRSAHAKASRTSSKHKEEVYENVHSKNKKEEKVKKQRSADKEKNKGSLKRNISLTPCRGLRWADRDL
# These are yes or no findings as the source states them, for the method shown. Binding seen in cells or lysates may run through a third protein. Some results given as binding are weak or reduced against the parent protein; the word gives no strength.
# Target: Carboxyl terminus of Hsp70-interacting protein (rat (endogenous in H9c2)) (UniProt A6HD62)
# Test: co-IP; H9c2 cell lysates immunoprecipitated with anti-CHIP or control IgG antibody for 2 h at 4 °C; beads washed; immunoblot with anti-SHP-1 and anti-CHIP antibodies
substance,measurement,value
tyrosine phosphatase SHP-1 (from UniProt P81718 1-613),binding,binds
